The target of the assay is T1, acyl-CoA binding protein 6 (ACBD6) (human) (UniProt Q9BR61).
T1 sequence: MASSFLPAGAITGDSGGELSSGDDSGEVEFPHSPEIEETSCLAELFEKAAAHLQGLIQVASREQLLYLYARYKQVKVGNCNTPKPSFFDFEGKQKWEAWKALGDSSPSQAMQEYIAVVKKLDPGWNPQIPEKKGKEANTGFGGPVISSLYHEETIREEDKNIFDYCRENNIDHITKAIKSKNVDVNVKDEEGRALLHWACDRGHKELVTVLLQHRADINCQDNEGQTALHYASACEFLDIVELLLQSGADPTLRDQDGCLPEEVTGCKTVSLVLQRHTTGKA
Put plainly: two-hybrid; yeast two hybrid system with ACBD6 as bait; unpublished observations, no methods given.

By UniProt entry, the sequences of proteins in these tests, tags left out.
UniProt P17027: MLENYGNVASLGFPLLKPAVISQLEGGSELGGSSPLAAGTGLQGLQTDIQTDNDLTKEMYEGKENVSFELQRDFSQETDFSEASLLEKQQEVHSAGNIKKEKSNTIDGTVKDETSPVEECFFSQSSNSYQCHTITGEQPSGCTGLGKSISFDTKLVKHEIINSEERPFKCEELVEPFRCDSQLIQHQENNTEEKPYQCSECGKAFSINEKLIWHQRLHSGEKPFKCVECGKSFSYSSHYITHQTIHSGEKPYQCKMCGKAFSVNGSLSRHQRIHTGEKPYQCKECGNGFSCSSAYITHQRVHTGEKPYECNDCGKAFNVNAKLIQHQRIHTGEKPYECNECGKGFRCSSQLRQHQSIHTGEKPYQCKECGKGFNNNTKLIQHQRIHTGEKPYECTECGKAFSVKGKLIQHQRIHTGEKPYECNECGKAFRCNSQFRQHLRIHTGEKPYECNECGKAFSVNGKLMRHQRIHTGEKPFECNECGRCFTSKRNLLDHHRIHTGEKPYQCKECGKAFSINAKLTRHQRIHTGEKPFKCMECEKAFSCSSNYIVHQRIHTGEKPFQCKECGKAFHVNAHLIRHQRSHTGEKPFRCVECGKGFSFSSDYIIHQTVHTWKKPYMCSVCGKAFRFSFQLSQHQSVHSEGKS

No constants are given. Whether binding was seen depends on the method and setting. Some binding calls cover weakened binding; strength is not graded here.

For the substance “zinc finger protein ZNF23 (from UniProt P17027 1-643)”, the binding entry is listed as “binds”.

The record behind these values is PMC3348897.
